{
  "source": "patent US9499582B2",
  "about": "(Oneday—Biotech And Pharma Ltd., priority 2012, dated 2016)",
  "experiment": "Fmoc solid-phase peptide synthesis; Fmoc-X-Wang resin",
  "details": "whole synthesis, scale of the general procedure 0.08 mmol",
  "data": [
    {"substance": "N-acetyl-Cys-Lys-Met-Cys-NH2 (CKMC; N-acetyl, C-terminal amide)", "values": [
      {"measurement": "final purity (method not given)", "value": ">98", "unit": "% pure"}
    ]}
  ]
}
